Experimental data: paper PMC9981882
Results are given in words; binding and its absence hold for the method and conditions named. Binding seen in cells or lysates may run through a third protein. Some entries that bind do so weakly or less than the wild type.

The chains behind the UniProt entries cited, without tags or fusion partners. Residues count along the entry.
UniProt P23467, residues 23-1997: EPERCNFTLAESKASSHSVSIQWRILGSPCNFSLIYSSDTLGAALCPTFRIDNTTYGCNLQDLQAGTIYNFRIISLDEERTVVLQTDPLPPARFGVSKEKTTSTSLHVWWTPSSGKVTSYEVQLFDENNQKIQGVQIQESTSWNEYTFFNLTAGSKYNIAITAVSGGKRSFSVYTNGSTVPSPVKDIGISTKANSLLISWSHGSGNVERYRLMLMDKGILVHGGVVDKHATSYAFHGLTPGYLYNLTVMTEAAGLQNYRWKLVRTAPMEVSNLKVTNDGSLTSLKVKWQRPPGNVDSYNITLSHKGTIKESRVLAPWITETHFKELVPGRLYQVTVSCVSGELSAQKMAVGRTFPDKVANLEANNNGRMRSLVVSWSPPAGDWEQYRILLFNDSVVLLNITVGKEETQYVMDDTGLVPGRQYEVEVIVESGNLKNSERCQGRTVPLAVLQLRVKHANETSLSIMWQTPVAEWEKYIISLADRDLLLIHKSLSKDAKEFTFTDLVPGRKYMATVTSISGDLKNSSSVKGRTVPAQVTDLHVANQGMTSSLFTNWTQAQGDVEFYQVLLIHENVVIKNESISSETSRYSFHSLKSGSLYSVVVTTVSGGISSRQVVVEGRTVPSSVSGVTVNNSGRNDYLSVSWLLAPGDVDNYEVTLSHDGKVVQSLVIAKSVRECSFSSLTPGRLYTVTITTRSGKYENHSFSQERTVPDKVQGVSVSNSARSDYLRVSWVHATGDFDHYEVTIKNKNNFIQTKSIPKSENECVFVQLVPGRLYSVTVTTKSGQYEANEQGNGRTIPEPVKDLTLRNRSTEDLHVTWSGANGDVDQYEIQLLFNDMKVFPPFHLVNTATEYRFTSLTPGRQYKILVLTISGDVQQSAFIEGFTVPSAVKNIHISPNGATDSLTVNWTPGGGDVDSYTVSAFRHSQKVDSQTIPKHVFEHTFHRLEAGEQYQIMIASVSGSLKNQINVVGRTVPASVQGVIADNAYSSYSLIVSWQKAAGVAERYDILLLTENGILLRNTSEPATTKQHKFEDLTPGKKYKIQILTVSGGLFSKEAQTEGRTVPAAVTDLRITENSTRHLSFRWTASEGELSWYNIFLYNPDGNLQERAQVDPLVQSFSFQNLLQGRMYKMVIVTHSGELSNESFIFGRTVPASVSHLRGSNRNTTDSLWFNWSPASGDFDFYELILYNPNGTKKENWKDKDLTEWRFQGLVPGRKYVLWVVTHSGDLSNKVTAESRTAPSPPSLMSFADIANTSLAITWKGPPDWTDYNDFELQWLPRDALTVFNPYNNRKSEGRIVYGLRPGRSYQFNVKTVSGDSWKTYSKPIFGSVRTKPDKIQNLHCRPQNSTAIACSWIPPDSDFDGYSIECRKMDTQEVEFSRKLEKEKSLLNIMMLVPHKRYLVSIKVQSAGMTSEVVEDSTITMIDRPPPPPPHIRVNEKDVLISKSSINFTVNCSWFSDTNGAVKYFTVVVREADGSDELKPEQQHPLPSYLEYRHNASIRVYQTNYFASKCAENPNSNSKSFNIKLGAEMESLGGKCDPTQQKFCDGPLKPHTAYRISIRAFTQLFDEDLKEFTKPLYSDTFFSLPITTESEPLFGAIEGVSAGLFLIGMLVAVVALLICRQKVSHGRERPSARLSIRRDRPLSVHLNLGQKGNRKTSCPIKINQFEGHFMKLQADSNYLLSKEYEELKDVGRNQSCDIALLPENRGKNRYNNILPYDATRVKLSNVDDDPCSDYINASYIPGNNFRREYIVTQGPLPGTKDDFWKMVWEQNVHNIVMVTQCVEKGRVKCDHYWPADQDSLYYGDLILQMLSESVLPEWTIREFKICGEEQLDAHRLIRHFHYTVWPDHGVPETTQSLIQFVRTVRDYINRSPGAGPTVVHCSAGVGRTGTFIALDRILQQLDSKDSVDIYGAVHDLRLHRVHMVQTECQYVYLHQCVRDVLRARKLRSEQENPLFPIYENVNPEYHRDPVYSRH
UniProt Q02763, residues 23-1124: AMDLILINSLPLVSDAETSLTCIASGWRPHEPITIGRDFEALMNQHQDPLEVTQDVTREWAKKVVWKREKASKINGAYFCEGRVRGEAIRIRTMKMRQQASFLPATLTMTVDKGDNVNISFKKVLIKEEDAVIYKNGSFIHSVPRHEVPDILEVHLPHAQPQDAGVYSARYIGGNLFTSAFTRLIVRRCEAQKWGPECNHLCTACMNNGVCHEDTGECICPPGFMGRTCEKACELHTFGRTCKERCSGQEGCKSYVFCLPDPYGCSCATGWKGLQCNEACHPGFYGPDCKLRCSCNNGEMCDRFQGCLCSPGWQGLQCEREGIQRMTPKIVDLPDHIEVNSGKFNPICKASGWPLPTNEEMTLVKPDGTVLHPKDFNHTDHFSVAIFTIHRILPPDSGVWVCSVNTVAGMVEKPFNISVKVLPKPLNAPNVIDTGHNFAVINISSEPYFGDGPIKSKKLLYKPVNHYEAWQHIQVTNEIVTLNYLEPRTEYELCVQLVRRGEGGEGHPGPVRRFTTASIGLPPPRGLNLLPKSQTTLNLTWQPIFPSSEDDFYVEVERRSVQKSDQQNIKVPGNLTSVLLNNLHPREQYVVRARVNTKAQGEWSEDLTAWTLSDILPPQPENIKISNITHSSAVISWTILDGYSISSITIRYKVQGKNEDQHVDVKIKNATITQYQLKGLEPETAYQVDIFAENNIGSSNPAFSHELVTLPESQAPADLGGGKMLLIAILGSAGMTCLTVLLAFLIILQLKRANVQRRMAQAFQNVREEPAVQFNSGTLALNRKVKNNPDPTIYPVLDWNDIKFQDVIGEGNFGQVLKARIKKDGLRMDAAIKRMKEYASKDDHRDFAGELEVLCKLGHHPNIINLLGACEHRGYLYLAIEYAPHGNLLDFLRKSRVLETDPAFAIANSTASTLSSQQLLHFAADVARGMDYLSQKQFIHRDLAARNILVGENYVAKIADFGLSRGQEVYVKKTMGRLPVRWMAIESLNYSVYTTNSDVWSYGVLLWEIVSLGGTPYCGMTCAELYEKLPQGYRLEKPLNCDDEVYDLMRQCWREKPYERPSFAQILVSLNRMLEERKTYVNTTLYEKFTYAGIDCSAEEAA
UniProt P35968, residues 20-1356: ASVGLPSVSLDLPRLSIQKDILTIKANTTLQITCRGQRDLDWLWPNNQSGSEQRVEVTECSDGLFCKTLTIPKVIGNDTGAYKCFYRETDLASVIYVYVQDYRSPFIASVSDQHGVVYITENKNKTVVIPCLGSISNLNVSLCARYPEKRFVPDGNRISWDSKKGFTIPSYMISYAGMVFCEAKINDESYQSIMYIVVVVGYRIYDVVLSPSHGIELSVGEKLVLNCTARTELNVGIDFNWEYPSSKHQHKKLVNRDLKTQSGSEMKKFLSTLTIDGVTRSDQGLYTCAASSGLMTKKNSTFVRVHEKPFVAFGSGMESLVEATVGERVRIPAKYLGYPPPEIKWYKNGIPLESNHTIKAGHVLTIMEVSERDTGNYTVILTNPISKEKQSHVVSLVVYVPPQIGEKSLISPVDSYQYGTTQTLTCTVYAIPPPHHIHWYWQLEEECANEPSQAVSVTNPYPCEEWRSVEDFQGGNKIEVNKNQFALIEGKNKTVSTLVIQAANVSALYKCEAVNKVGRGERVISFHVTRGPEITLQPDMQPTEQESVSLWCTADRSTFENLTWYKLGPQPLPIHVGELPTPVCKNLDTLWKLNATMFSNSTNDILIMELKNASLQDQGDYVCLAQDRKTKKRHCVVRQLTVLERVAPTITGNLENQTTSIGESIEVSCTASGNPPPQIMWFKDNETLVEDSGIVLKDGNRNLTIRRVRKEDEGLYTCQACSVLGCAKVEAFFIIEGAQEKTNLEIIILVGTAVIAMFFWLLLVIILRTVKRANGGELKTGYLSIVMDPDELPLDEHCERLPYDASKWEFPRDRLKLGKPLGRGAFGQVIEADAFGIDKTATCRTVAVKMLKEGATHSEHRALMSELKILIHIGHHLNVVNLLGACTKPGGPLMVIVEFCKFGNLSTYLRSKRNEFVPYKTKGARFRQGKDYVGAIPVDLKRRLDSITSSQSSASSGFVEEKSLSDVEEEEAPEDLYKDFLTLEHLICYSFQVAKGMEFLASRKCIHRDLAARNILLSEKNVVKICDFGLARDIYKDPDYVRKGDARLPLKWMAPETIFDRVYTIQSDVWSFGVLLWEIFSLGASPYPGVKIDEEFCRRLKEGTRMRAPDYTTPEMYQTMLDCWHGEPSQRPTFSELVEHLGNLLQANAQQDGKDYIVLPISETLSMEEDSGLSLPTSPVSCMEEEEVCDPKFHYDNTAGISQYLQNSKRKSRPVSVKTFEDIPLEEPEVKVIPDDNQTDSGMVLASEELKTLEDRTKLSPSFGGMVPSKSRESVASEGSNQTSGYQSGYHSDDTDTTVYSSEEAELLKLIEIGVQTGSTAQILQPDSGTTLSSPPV

Biological target: VE-PTP (human (endogenous in HUVECs)) (UniProt P23467)
Assay: co-IP; HUVECs pretreated with 30 ug/ml 4E2 for 20 min, then VEGF for 10 min; 1% NP-40 lysis buffer (20 mM HEPES pH 7.4, 150 mM NaCl, 1 mM EDTA); lysate incubated overnight with anti-human VE-PTP antibody, Protein-A/G agarose beads; immunoblot

| binding | Substance |
| --- | --- |
| binds | tunica interna endothelial cell kinase 2 (Tie2), endogenous in HUVECs (from UniProt Q02763 23-1124) (receptor) |
| binds | vascular endothelial growth factor receptor 2 (from UniProt P35968 20-1356) |
